# Results published in patent US20260191853A1, “METHOD OF TREATING DRUG-INDUCED BRADYARRHYTHMIA” (OSAKA UNIVERSITY, priority 2022, published 2026).
# At least one structure is not confirmed: it was looked up by name or label, or the drawing left a doubt.
# Test system: Hartley guinea pigs
# Experiment: Effect on fingolimod-induced decrease in blood lymphocytes in guinea pig
# Type: in vivo
# Conditions: fingolimod hydrochloride 0.1 mg/kg oral gavage; 5 and 24 hours
# Experimental: Hartley guinea pigs (8 weeks old, male, available from Japan SLC, Inc.) were fasted for about 16 hours, and then a solvent or compound (I) (free form) was administered by oral gavage to each animal at a dose of 10 or 30 mg/kg (volume: 5 mL/kg). The solvent used was 0.5 w/v % methyl cellulose 400 solution (available from FUJIFILM Wako Pure Chemical Corporation). Thirty minutes after the administration, a solvent or fingolimod hydrochloride was administered by oral gavage to the animal at a dose of 0.1 mg/kg (volume: 5 mL/kg). The solvent used was saline (available from Otsuka Pharmaceutical Factory, Inc.). Blood was collected from the jugular vein, the subclavian vein, or the abdominal vena cava before administration of compound (I) and 5 and 24 hours after administration of fingolimod hydrochloride. Blood cell components were analyzed with a multi-item automatic blood cell counter (XN-1000, available from Sysmex Corporation). The plasma was collected by centrifuging the blood and cryopreserved at about −20° C. After thawing of the plasma, plasma drug concentrations were measured using LC/MS/MS after deproteinization with acetonitrile.
# In FIG. 7, the measurements are shown as mean±standard error, and (I) denotes compound (I).
structure (smiles),measurement,value
"CCCCCCCCc1ccc(CCC(N)(CO)CO)cc1 [fingolimod, reference compound]",number of peripheral blood lymphocytes,decreased
